The source of these data is US20250011410A1.

Experiment [1] deals with canine NGF tagged at the C-terminus with the Flag tag (canine). Kind of experiment: SPR.
Experiment [2] shares this target. The experiment is described as follows: SPR (Biacore T200), antibody captured on an anti-feline coupled CM5 chip, NGF as analyte at 50, 25, 12.5, 6.25, 3.125 and 1.56 nM.

Substitutions are numbered along the chain they refer to. No constants are given. Whether binding was seen depends on the method and setting. Some results given as binding are weak or reduced against the parent protein; the word gives no strength.

B1: canine 2166 chimeric antibody (antibody, V domains shown)
VH: QVQLKESGPGLVQPSQTLSLTCTVSGLSLTSNSVSWIRQPPGKGLEWMGVIWSNGGTDYNSAIESRLSINRDTSKSQVFLKMNSLQPEDTAMYFCASIYYYDADYLHWYFDFWGPGTMVTVSS
VL: DIQMTQSPASLSASLGETVSIECLASEGISNSLAWYQLKPGKSPQFLIYATSSLQDGVPSRFSGSGSGTQYSLKISGMQPEDEGVYYCQQGYKFPLTFGSGTKLKIKR
For B1, the binding result in experiment [1] is listed as “binds”.

B2: SC-184_110 (antibody, IgG1a, V domains shown)
VH: DVQLVESGGDLVKPGGSLRLTCVASGLSLTSASMSWVRQAPGKGLQWVSTIYSNGGTYYTDSVKGRFTISKDNAENTLYLQMNNLKTEDTATYYCASIYYYEAEYLHWYFDFWGQGALVTVSS
VL: EIQMTQSPTSLSASVGDRVTITCRASEGISKNLSWYQQTPGKAPKLLIYATDNLHSGVPSRFSGSGSGTDFTLTISSLQPEDFATYYCQQGWKWPLTFGGGTKLEIT
For the molecule B2, in experiment [2], the binding result is “binds”.

B3: felinized clone 101 (antibody, V domains shown)
VH: B2 VH with A32S, E102D, E104D
VL: B2 VL with K31N, D52S, W92Y
In the case of B3, in experiment [1], the binding entry was “binds”.

B4: SC-184_110-Arg (antibody, V domains shown)
VH: B2 VH with G55R
VL: B2 VL
With B4, the binding result in experiment [2] is reported as “binds”.
